According to PMC5127842:
Results are given in words; binding and its absence hold for the method and conditions named. In cells and extracts the contact can be indirect. Some binding calls cover weakened binding; strength is not graded here. Values belong to the molecule of their own block, whether it stands above or below them.

Sequences of proteins named here, by UniProt entry; tags and fusion partners are left off.
UniProt Q8BQP9: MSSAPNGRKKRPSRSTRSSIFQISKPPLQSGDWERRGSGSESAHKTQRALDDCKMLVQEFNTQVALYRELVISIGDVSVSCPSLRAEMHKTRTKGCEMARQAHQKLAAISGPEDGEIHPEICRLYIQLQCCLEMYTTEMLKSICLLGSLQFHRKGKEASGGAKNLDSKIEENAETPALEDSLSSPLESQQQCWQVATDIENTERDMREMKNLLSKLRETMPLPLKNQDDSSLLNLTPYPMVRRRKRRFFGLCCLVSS

Assays:
[1] = target: T1, Regulator of G-protein signaling 7 (RGS7) (mouse (endogenous in cerebellum)) (UniProt O54829); experiment: co-IP; mouse cerebellum lysate cleared at 14,000 x g; 2 μg rabbit anti-RGS7 NT or sheep anti-R7BP NT with Protein G beads, 4°C, 1 h; three washes with immunoprecipitation buffer (300 mM NaCl, 50 mM Tris-HCl pH 7.4, 1% Triton X-100); lysates of RGS7-/- or R7BP-/- mice as negative controls; detection by western blot
T1 sequence: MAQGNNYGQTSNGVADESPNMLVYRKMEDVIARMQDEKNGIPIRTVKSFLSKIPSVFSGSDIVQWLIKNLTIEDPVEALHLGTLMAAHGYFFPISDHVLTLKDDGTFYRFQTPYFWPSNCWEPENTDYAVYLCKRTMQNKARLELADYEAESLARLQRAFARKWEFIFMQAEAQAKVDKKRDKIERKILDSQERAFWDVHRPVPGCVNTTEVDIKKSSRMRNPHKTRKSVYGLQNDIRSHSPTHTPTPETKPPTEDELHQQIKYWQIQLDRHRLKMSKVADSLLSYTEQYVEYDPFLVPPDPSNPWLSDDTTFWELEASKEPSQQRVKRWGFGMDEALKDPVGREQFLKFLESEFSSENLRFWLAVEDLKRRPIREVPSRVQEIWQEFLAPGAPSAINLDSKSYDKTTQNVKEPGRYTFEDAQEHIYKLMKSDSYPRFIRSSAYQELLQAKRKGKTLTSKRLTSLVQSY

[2] = target: R7 binding protein (R7BP) (mouse (endogenous in cerebellum)) (UniProt Q8BQP9); experiment: as above

binding [1]: binds
Molecule: R7 binding protein (R7BP) (from UniProt Q8BQP9 1-257)

binding [2]: binds
B1: Regulator of G-protein signaling 7 (RGS7) (protein, UniProt O54829 1-469)
chain: T1 sequence
